These results are taken from US20260104399A1, “A PROCESS FOR ASSESSING BIODEGRADABILITY OF COMPLEX ORGANIC MIXTURES” (ABOCA S.P.A. SOCIETÀ AGRICOLA, priority 2022, published 2026).

Series [1] has as its system microfauna of the inoculum (activated sludge and river water). The series is described as follows: Semiquantitative UHPLC-qToF evaluation (Relative Ratio, percentage of reduction) of residual main components after RBT. Also noted: species or system Aspidisca cicada, Zoothamnium, Rotiferi, Euglyphia. The note with it: for reduction percentage: T28 vs T0; for RR at T28 (Relative Ratio): after 28 days RBT.

The test system is the same in series [2]. The series is described as follows: Targeted UHPLC-qToF qualitative analysis of RBT samples of mixtures A and B. Details: species or system Aspidisca cicada, Zoothamnium, Rotiferi, Euglyphia.
Setting [3] is: component in Mixture A at 50 mg/L.
[4] abbreviates: component in Mixture A at 100 mg/L.
[5] abbreviates: component in Mixture A at 1000 mg/L.

Take `OC[C@H]1O[C@H](O[C@]2(CCl)O[C@H](CCl)[C@@H](O)[C@@H]2O)[C@H](O)[C@@H](O)[C@H]1Cl` [Sucralose (1), sucralose]: in series [1] (Mixture A, all the samples (50, 100, 1000 mg/L), 28 days), the “degradation of the component (in words)” value is “fully non-degradable”. Moreover, the reduction percentage entry in series [1] (setting [3]) is on record as “No % reduction”; in series [1] (setting [4]), 0.56% reduction; in series [1] (setting [5]), “No % reduction”. For the same compound, the “RR at T28 (Relative Ratio)” value is given as “RR at T28 0.052” in series [1] (setting [3]), “RR at T28 0.09” in series [1] (setting [4]) and “RR at T28 0.483” in series [1] (setting [5]). Further, in series [1] (component in Mixture A at 50 mg/L, start of RBT), the “RR at T0 (Relative Ratio, area counts of compound / internal standard)” value was “RR at T0 0.049”. For the same compound, the “RR at T0 (Relative Ratio)” value in series [1] (component in Mixture A at 100 mg/L, start of RBT) is reported as “RR at T0 0.100”; in series [1] (component in Mixture A at 1000 mg/L, start of RBT) it was “RR at T0 0.468”. In series [2] (Mixture A, after 28 days RBT), the “presence after 28 days (target analysis, m/z 419.0038)” value is recorded as “detected without any significant difference in concentration”.

Take Sucrose [Sucrose (4)]: the “presence of compound or direct derivatives after 28 days of RBT” value in series [2] (Mixture B, target study) is given as “not possible to detect”.
